# The list shows a part of the results.
# Columns and labels:
# Assay in all cases: glycan array binding signal (z-score within array); higher = stronger binding
# Conditions in all cases: glycan notation: IUPAC condensed, linker removed
# [1] = molecular target: Fuc(a1-3)GlcNAc
# Procedure, shortened: (§1)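 The binding signal is a Z-score computed within each array and averaged over linkers. Arrays of the same protein sequence at different concentrations or buffers were also averaged together. Data originate from 3228 arrays in the Consortium for Functional Glycomics database, kept only where the protein sequence was available.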
# [2] = molecular target: Fuc(a1-3)[Gal(b1-4)]Glc6S
# Procedure, shortened: as §1
# [3] = molecular target: Fuc(a1-3)[Gal(b1-4)]GlcNAc
# Procedure, shortened: as §1
# [4] = molecular target: Fuc(a1-3)[Gal(b1-4)]GlcNAc(b1-2)Man
# Procedure, shortened: as §1
# [5] = molecular target: Fuc(a1-3)[Gal(b1-4)]GlcNAc(b1-2)Man(a1-3)[Fuc(a1-3)[Gal(b1-4)]GlcNAc(b1-2)Man(a1-6)]Man(b1-4)GlcNAc(b1-4)GlcNAc
# Procedure, shortened: as §1
# [6] = molecular target: Fuc(a1-3)[Gal(b1-4)]GlcNAc(b1-2)Man(a1-3)[Fuc(a1-3)[Gal(b1-4)]GlcNAc(b1-2)Man(a1-6)]Man(b1-4)GlcNAc(b1-4)[Fuc(a1-6)]GlcNAc
# Procedure, shortened: as §1
# [7] = molecular target: Fuc(a1-3)[Gal(b1-4)]GlcNAc(b1-3)Gal(b1-3)[Fuc(a1-4)]GlcNAc
# Procedure, shortened: as §1
# [8] = molecular target: Fuc(a1-3)[Gal(b1-4)]GlcNAc(b1-3)Gal(b1-4)[Fuc(a1-3)]GlcNAc
# Procedure, shortened: as §1
# [9] = molecular target: Fuc(a1-3)[Gal(b1-4)]GlcNAc(b1-3)Gal(b1-4)[Fuc(a1-3)]GlcNAc(b1-3)Gal(b1-4)[Fuc(a1-3)]GlcNAc
# Procedure, shortened: as §1
# [10] = molecular target: Fuc(a1-3)[Gal(b1-4)]GlcNAc(b1-3)GalNAc
# Procedure, shortened: as §1
# [11] = molecular target: Fuc(a1-3)[Gal(b1-4)]GlcNAc(b1-6)GalNAc
# Procedure, shortened: as §1
# [12] = molecular target: Fuc(a1-3)[Gal(b1-4)]GlcNAc(b1-6)[Gal(b1-3)GlcNAc(b1-3)]Gal(b1-4)Glc
# Procedure, shortened: as §1
# [13] = molecular target: Fuc(a1-3)[Gal(b1-4)]GlcNAc6S
# Procedure, shortened: as §1
# [14] = molecular target: Fuc(a1-3)[Gal3S(b1-4)]Glc
# Procedure, shortened: as §1
# [15] = molecular target: Fuc(a1-3)[Gal3S(b1-4)]GlcNAc
# Procedure, shortened: as §1
# [16] = molecular target: Fuc(a1-3)[Gal3S(b1-4)]GlcNAc6S
# Procedure, shortened: as §1
# [17] = molecular target: Fuc(a1-3)[GalNAc(b1-4)]GlcNAc
# Procedure, shortened: as §1
# [18] = molecular target: Fuc(a1-3)[GalNAc(b1-4)]GlcNAc6S
# Procedure, shortened: as §1
# [19] = molecular target: Fuc(a1-4)GlcNAc
# Procedure, shortened: as §1
# [20] = molecular target: Fuc(b1-3)GlcNAc
# Procedure, shortened: as §1
# [21] = molecular target: Gal(a1-2)Gal
# Procedure, shortened: as §1
# [22] = molecular target: Gal(a1-3)Gal
# Procedure, shortened: as §1
# [23] = molecular target: Gal(a1-3)Gal(b1-3)GlcNAc
# Procedure, shortened: as §1
# [24] = molecular target: Gal(a1-3)Gal(b1-3)GlcNAc(b1-2)Man
# Procedure, shortened: as §1
# [25] = molecular target: Gal(a1-3)Gal(b1-3)GlcNAc(b1-2)Man(a1-3)[Gal(a1-3)Gal(b1-3)GlcNAc(b1-2)Man(a1-6)]Man(b1-4)GlcNAc(b1-4)GlcNAc
# Procedure, shortened: as §1
# [26] = molecular target: Gal(a1-3)Gal(b1-3)GlcNAc(b1-3)GalNAc
# Procedure, shortened: as §1
# [27] = molecular target: Gal(a1-3)Gal(b1-3)GlcNAc(b1-6)GalNAc
# Procedure, shortened: as §1
# [28] = molecular target: Gal(a1-3)Gal(b1-3)[Fuc(a1-4)]GlcNAc(b1-2)Man(a1-3)[Gal(a1-3)Gal(b1-3)[Fuc(a1-4)]GlcNAc(b1-2)Man(a1-6)]Man(b1-4)GlcNAc(b1-4)GlcNAc
# Procedure, shortened: as §1
# [29] = molecular target: Gal(a1-3)Gal(b1-4)Glc
# Procedure, shortened: as §1
# [30] = molecular target: Gal(a1-3)Gal(b1-4)GlcNAc
# Procedure, shortened: as §1
# [31] = molecular target: Gal(a1-3)Gal(b1-4)GlcNAc(b1-2)Man
# Procedure, shortened: as §1
# [32] = molecular target: Gal(a1-3)Gal(b1-4)GlcNAc(b1-2)Man(a1-3)[Gal(a1-3)Gal(b1-4)GlcNAc(b1-2)Man(a1-6)]Man(b1-4)GlcNAc(b1-4)GlcNAc
# Procedure, shortened: as §1
# [33] = molecular target: Gal(a1-3)Gal(b1-4)GlcNAc(b1-3)GalNAc
# Procedure, shortened: as §1
# [34] = molecular target: Gal(a1-3)Gal(b1-4)GlcNAc(b1-6)GalNAc
# Procedure, shortened: as §1
# [35] = molecular target: Gal(a1-3)Gal(b1-4)[Fuc(a1-3)]GlcNAc
# Procedure, shortened: as §1
# [36] = molecular target: Gal(a1-3)Gal(b1-4)[Fuc(a1-3)]GlcNAc(b1-2)Man(a1-3)[Gal(a1-3)Gal(b1-4)[Fuc(a1-3)]GlcNAc(b1-2)Man(a1-6)]Man(b1-4)GlcNAc(b1-4)GlcNAc
# Procedure, shortened: as §1
# [37] = molecular target: Gal(a1-3)GalNAc
# Procedure, shortened: as §1
# [38] = molecular target: Gal(a1-3)[Gal(a1-4)]Gal(b1-4)GlcNAc
# Procedure, shortened: as §1
# [39] = molecular target: Gal(a1-4)Gal(b1-3)GlcNAc(b1-2)Man(a1-3)[Gal(a1-4)Gal(b1-3)GlcNAc(b1-2)Man(a1-6)]Man(b1-4)GlcNAc(b1-4)GlcNAc
# Procedure, shortened: as §1
# [40] = molecular target: Gal(a1-4)Gal(b1-4)Glc
# Procedure, shortened: as §1
# [41] = molecular target: Gal(a1-4)Gal(b1-4)GlcNAc
# Procedure, shortened: as §1
# [42] = molecular target: Gal(a1-4)Gal(b1-4)GlcNAc(b1-2)Man(a1-3)[Gal(a1-4)Gal(b1-4)GlcNAc(b1-2)Man(a1-6)]Man(b1-4)GlcNAc(b1-4)GlcNAc
# Procedure, shortened: as §1
# [43] = molecular target: Gal(a1-4)Gal(b1-4)GlcNAc(b1-3)Gal(b1-4)Glc
# Procedure, shortened: as §1
# [44] = molecular target: Gal(a1-4)GlcNAc
# Procedure, shortened: as §1
# [45] = molecular target: Gal(a1-6)Glc
# Procedure, shortened: as §1
binder,measurement,setting,value
Mermaid1 (Stilbonema majum) (protein) MGSSHHHHHHSSGLVPRGSHMAASGWLRSPQGTVVKLYRRSLSWSKADEFCKDVDGRLVVDRTADMHLFLIKNVLKEKKSRVWVGLRRTAPHSRTWIWSDGTRQNEDDLDANLWLRDEPNDAAGEEECALFMYSPWEKAWGLNDYLCRGGCRSYQFICEKWIR,glycan array binding signal (z-score),[1],-0.128
same,glycan array binding signal (z-score),[2],0.27
same,glycan array binding signal (z-score),[3],-0.248
same,glycan array binding signal (z-score),[4],-0.346
same,glycan array binding signal (z-score),[5],-0.717
same,glycan array binding signal (z-score),[6],-0.538
same,glycan array binding signal (z-score),[7],-0.602
same,glycan array binding signal (z-score),[8],0.618
same,glycan array binding signal (z-score),[9],-0.381
same,glycan array binding signal (z-score),[10],-0.32
same,glycan array binding signal (z-score),[11],1.29
same,glycan array binding signal (z-score),[12],-0.676
same,glycan array binding signal (z-score),[13],2.01
same,glycan array binding signal (z-score),[14],0.419
same,glycan array binding signal (z-score),[15],0.016
same,glycan array binding signal (z-score),[16],-0.107
same,glycan array binding signal (z-score),[17],0.394
same,glycan array binding signal (z-score),[18],-0.336
same,glycan array binding signal (z-score),[19],-0.647
same,glycan array binding signal (z-score),[20],0.5
same,glycan array binding signal (z-score),[21],0.245
same,glycan array binding signal (z-score),[22],-0.309
same,glycan array binding signal (z-score),[23],0.118
same,glycan array binding signal (z-score),[24],-0.215
same,glycan array binding signal (z-score),[25],1.25
same,glycan array binding signal (z-score),[26],-0.081
same,glycan array binding signal (z-score),[27],-0.289
same,glycan array binding signal (z-score),[28],2.49
same,glycan array binding signal (z-score),[29],-0.784
same,glycan array binding signal (z-score),[30],-0.824
same,glycan array binding signal (z-score),[31],-0.331
same,glycan array binding signal (z-score),[32],0.543
same,glycan array binding signal (z-score),[33],-0.449
same,glycan array binding signal (z-score),[34],-0.176
same,glycan array binding signal (z-score),[35],-0.276
same,glycan array binding signal (z-score),[36],1.45
same,glycan array binding signal (z-score),[37],-0.799
same,glycan array binding signal (z-score),[38],1.13
same,glycan array binding signal (z-score),[39],-0.121
same,glycan array binding signal (z-score),[40],-0.565
same,glycan array binding signal (z-score),[41],-0.207
same,glycan array binding signal (z-score),[42],1.14
same,glycan array binding signal (z-score),[43],-0.325
same,glycan array binding signal (z-score),[44],-0.618
same,glycan array binding signal (z-score),[45],0.263

# 2 entries from above, as tab-separated lines:
binder	measurement	setting	value
Mermaid1 (Stilbonema majum) (protein) MGSSHHHHHHSSGLVPRGSHMAASGWLRSPQGTVVKLYRRSLSWSKADEFCKDVDGRLVVDRTADMHLFLIKNVLKEKKSRVWVGLRRTAPHSRTWIWSDGTRQNEDDLDANLWLRDEPNDAAGEEECALFMYSPWEKAWGLNDYLCRGGCRSYQFICEKWIR	glycan array binding signal (z-score)	[23]	0.118
same	glycan array binding signal (z-score)	[43]	-0.325
